Measurements published in PubChem BioAssay AID624297 (National Center for Advancing Translational Sciences (NCATS), 2012).
The campaign covered roughly 340,000 compounds. About 6,200 (1.8%) were called active. The shares of active, inactive and inconclusive entries below differ from those in the screen. The call rests on the fitted dose curve; in most records, active means well fitted activation curve with a large enough effect; inconclusive means small, poorly fitted or top-dose-only effect; inactive means no such curve, though single readings can be large or run the other way. Potencies beside an inconclusive call are fits to weak or partial responses and may not hold up.

test: A quantitative high throughput screen for small molecules that induce DNA re-replication in SW480 colon adenocarcinoma cells.; further: nearly all actives have a fitted effect of over 55% in size; on re-replication activation: % of control where 0% means no effect; details: Hoechst DNA content imaging, 48 h; re-replication activation: at 46.1 µM (top of the series) unless noted
How it was run: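 Treated cells incubate 48 hr (37 C, 5% CO2), are stained 40 min with Hoechst, and nuclear fluorescence is enumerated; a rise in nuclei with high DNA signal marks re-replication.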
Potency means the concentration at half of the fitted maximal effect.

Structure (SMILES) | Potency | re-replication activation
CC(=O)N(c1ccccc1C)S(=O)(=O)c1ccc(Cl)cc1 | inconclusive: 29.1 µM [activator, single point] | –
Oc1c(Br)cccc1/C=N/c1ncn[nH]1 | inactive | –
Cc1cc(NC(=O)NC(=O)c2ccccc2NC(=O)CN(C)C)ccc1Oc1ncc(Br)cn1 | active: 6.51 µM | –
Cc1ccc(N(C)C(=O)CCS(=O)(=O)c2cc3c(cc2Cl)NC(=O)CO3)cc1 | inconclusive: 29.1 µM [activator, partial curve, poor fit] | –
Cc1cc(NC(=O)CSc2nc3cc(C(=O)NCCCOC(C)C)ccc3c(=O)n2Cc2ccco2)no1 | inconclusive: 23.1 µM [activator, partial curve, poor fit] | –
CCc1sc(C(=O)N(CCCOC)c2c(N)n(CC(C)C)c(=O)[nH]c2=O)cc1C | inconclusive: 29.1 µM [activator, partial curve, poor fit] | –
CC(C)C(=O)NC(=S)Nc1ccc(S(=O)(=O)Nc2ccccc2)cc1 | inconclusive: 32.6 µM [activator, partial curve, poor fit] | –
Cc1ccccc1OCC(O)Cn1c2ccccc2c2ccccc21 (stereo unspecified) | active: 23.1 µM | –
Cc1ccc(Nc2nc(NCc3ccco3)c3ccccc3n2)cc1 | inconclusive: 18.4 µM [activator, single point] | –
O=C(CSc1nc2ccccc2c(=O)n1Cc1ccco1)N1CCN(c2ccccc2)CC1 | inactive | –
CCn1cc(C(=O)N[C@H](C(=O)NC(C)(C)CO)C(C)C)c(=O)c2cc3c(cc21)OCO3 | inconclusive: 25.9 µM [activator, partial curve, poor fit] | –
O=C(CSc1nc(C2CCCCC2)nc2ccccc12)NCc1ccco1 | inactive | –
O=C(Nc1ccc2c(c1)OCCO2)c1ccccc1 | inactive | –
CC(C)=CCCC(C)CN1CCC(N2CCC(C(=O)NC(C)C)CC2)CC1 (stereo unspecified) | inconclusive: 14.6 µM [activator, partial curve, poor fit] | –
O=C(c1ccco1)c1nnn(Cc2ccccc2)c1-c1ccccc1 | inactive | –
O=[N+]([O-])c1cc(S(=O)(=O)Nc2ccccc2)ccc1N1CCN(c2ccccc2)CC1 | inconclusive: 16.4 µM [activator, single point] | –
CCOP(=O)(Nc1ccc2oc(=O)c3ccccc3c2c1)OCC | inactive | –
CC(=O)Nc1ccc(N2N=C(C)C(N=Nc3ccccc3)C2=O)cc1 (stereo unspecified) | inconclusive: 29.1 µM [activator, partial curve, poor fit] | –
NC(=O)NOCc1ccc(Cl)cc1Cl | inactive | –
C(=C\c1ccncc1)/c1ccncc1 | inactive | –
Cc1cc(NC(=O)CCN2CCN(C/C=C/c3ccccc3)CC2)ccc1Br | inconclusive: 25.9 µM [activator, single point] | –
CC(C)(C)OC(=O)C(Cc1ccc(OC(C)(C)C)cc1)NC(=O)CNC(=O)CNC(=O)OCc1ccccc1 (stereo unspecified) | inactive | –
Cc1ccccc1COC(=O)c1cc([N+](=O)[O-])ccc1N1CCOCC1 | inconclusive: 29.1 µM [activator, single point] | –
CCOc1ccc(/C=C/C(=O)c2ccccc2)cc1OC | inconclusive: 29.1 µM [activator, single point] | –

Structure (SMILES) | Potency | re-replication activation
O=C(NCCN1CCNC1=O)C1CCC(=O)N(CCc2ccc(Cl)cc2)C1 (stereo unspecified) | inconclusive: 0.326 µM [activator, partial curve, poor fit] | –
S=c1[nH]cnc2sc(Nc3ccccc3)nc12 | inconclusive: 25.9 µM [activator, single point] | –
c1cc2c3c(cccc3c1)C(N1CCOCC1)=N2 | inconclusive: 29.1 µM [activator, single point] | –
O=C(Nc1ccc(Cl)cc1)Nc1ccccc1NS(=O)(=O)c1cccs1 | inactive | –
CCc1cc(C(=O)N2CCN(c3ncccn3)CC2)sc1C | inconclusive: 0.103 µM [activator, partial curve, poor fit] | –
COc1ccc(C(=O)NC2CC2)cc1OC1CCN(C(C)CSC)CC1 (stereo unspecified) | inactive | –
Cc1cc(C)nc(Nc2nc(C)c3cc4c(cc3n2)OCO4)n1 | inconclusive: 29.1 µM [activator, single point] | –
COc1cc2nc(NCCCN3CCN(C)CC3)n3nc(-c4ccccc4)nc3c2cc1OC | inconclusive: 29.1 µM [activator, single point] | –
COc1ccc2[nH]c(C)c(-c3csc(N)n3)c2c1 | inconclusive: 29.1 µM [activator, single point] | –
CCN1C(=O)[C@H]2[C@@H](c3ccc(C)cc3)N3C(=O)N(c4ccccc4)C(=O)[C@@]3(CC)[C@H]2C1=O | inconclusive: 16.4 µM [activator, single point] | –
COC(=O)c1cc(S(=O)(=O)N2CCN(c3ccc([N+](=O)[O-])cc3)CC2)c[nH]1 | inconclusive: 0.0041 µM [activator, full curve, poor fit] | –
O=C(NC1CCCCC1)C1CC(=O)N(c2cccc([N+](=O)[O-])c2)C1 (stereo unspecified) | inactive | –
CC(=O)c1ccc(OCCCC(=O)Nc2cc(S(=O)(=O)N3CCCCC3)ccc2C)cc1 | inconclusive: 0.0046 µM [activator, full curve, poor fit] | –
CCN(c1ccccc1)S(=O)(=O)c1ccc(C(=O)NCC2(N(C)C)CCCCC2)cc1 | inconclusive: 29.1 µM [activator, single point] | –
CCCn1c(=O)c(C(=O)NCc2cccnc2)c(O)c2ccccc21 | inconclusive: 0.461 µM [activator, full curve, poor fit] | –
Cc1ccc(S(=O)(=O)NCc2ccncc2)cc1C | inactive | –
CCCCCOc1ccc(/C(C)=N/NC2=NCCN2)cc1 | inconclusive: 4.61 µM [activator, partial curve, poor fit] | –
COc1ccc(C(=O)COC(=O)c2cc3ccccc3oc2=O)c(OC)c1 | inconclusive: 29.1 µM [activator, single point] | –
CCCCn1nc2cc(C(=O)NCc3ccccc3)ccc2c1OCC | inactive | –
O=C(Nc1ccc(Br)cc1)NC1CCCCCCC1 | inconclusive: 29.1 µM [activator, single point] | –
CCC(=O)c1cccc(-c2ccccc2)c1CC | inactive | –
O=C(Nc1nnc(CC2=CCCCC2)s1)Nc1ccccc1F | inactive | –
CC1CCc2sc(C(=O)N3CCN(c4ncccn4)CC3)cc2C1 (stereo unspecified) | inactive | –
CC(C)=NNc1nc2sc3c(c2c(=O)[nH]1)CC(C)(C)OC3 | inconclusive: 29.1 µM [activator, single point] | –

Whole records from above. Values in the order: Potency | re-replication activation
CCCCn1nc2cc(C(=O)NCc3ccccc3)ccc2c1OCC is listed with inactive | –
COc1ccc2[nH]c(C)c(-c3csc(N)n3)c2c1 is listed with inconclusive: 29.1 µM [activator, single point] | –

Additional entries

Structure (SMILES) | Potency | re-replication activation
CC(=O)c1c(C)oc2ccc(N(C(C)=O)S(=O)(=O)c3cccc4cccnc34)cc12 | inconclusive: 1.46 µM [activator, partial curve, poor fit] | –
COc1cc(O)c2c(=O)c3c(O)c(O)ccc3oc2c1OC | inconclusive: 29.1 µM [activator, single point] | –
O=C(COc1ccccc1)N1CCN=C1SCc1ccc(F)cc1 | inconclusive: 0.231 µM [activator, full curve, poor fit] | –
O=C(NC1CC1)c1sc2cc([N+](=O)[O-])ccc2c1Cl | inactive | –
COc1cc(C(=O)NCC(c2cccs2)N(C)C)cc(Cl)c1OC(C)C (stereo unspecified) | inconclusive: 18.4 µM [activator, partial curve, poor fit] | –
CN(CC(=O)Nc1ccc(F)cc1)C(=O)CCc1nc2sc3c(c2c(=O)[nH]1)CCCC3 | inconclusive: 23.1 µM [activator, partial curve, poor fit] | –
COc1ccc(/C=N/Nc2ncc(Br)cn2)c(OC)c1 | inactive | –
COc1ccc(-c2nn(-c3ccccc3)cc2C(=O)O)cc1N | inconclusive: 6.51 µM [activator, single point] | –
COc1ccc(C(=O)Nc2nc(CC(=O)NCCc3ccccc3OC)cs2)cc1 | inactive | –
C=CCNC(=S)NNC(=O)c1csc(C)c1CC | inconclusive: 32.6 µM [activator, partial curve, poor fit] | –
CCOC(=O)CSc1nc(C2CC2)cc(-c2ccc(F)cc2)c1C#N | inactive | –
Cc1cc(/C=C(\C#N)C(=O)O)c(C)n1-c1ccc(Br)cc1 | inconclusive: 0.103 µM [activator, full curve, poor fit] | –
COCCN(C(=O)c1snc(C(N)=O)c1N)C(C(=O)NC1CCCCC1)c1ccc(F)cc1 (stereo unspecified) | inconclusive: 18.4 µM [activator, single point] | –
COc1cccc(CN2CCN(C(=O)c3cccc4ccccc34)CC2)c1OC | inactive | –
CC(=O)c1c(C)c[nH]c1C | inconclusive: 29.1 µM [activator, single point] | –
O=C(COC(=O)c1ccccc1Cl)Nc1nccs1 | inconclusive: 29.1 µM [activator, partial curve, poor fit] | –
O=C(CSc1ccc2ccccc2c1)N1CCN(c2ccc(O)cc2)CC1 | inconclusive: 18.4 µM [activator, single point] | –
CCOc1ccccc1C=C1SC(=S)N(CC)C1=O | inactive | –
O=C(c1cccc(S(=O)(=O)NCc2ccccc2)c1)N1CCN(c2cccc(C(F)(F)F)c2)CC1 | inconclusive: 20.6 µM [activator, single point] | –
CCCCOc1ccc(Cc2n[nH]c(=S)n2N)cc1 | inactive | –
Cc1nc2ccccc2c(=O)n1NC(=O)C1CCC(C(C)(C)C)CC1 (stereo unspecified) | – | inconclusive: -23.1% [activator]
O=C(NCC(=O)N1CC=C(c2ccccc2)CC1)c1ccco1 | inactive | –
O=C(Nc1cccnc1)c1ccc(COc2ccccc2Br)o1 | inconclusive: 16.4 µM [activator, single point] | –

Looked up by compound from above (4):
Structure (SMILES) | Potency | re-replication activation
O=C(NC1CC1)c1sc2cc([N+](=O)[O-])ccc2c1Cl | inactive | –
O=C(CSc1ccc2ccccc2c1)N1CCN(c2ccc(O)cc2)CC1 | inconclusive: 18.4 µM [activator, single point] | –
CCOc1ccccc1C=C1SC(=S)N(CC)C1=O | inactive | –
O=C(c1cccc(S(=O)(=O)NCc2ccccc2)c1)N1CCN(c2cccc(C(F)(F)F)c2)CC1 | inconclusive: 20.6 µM [activator, single point] | –
